The full ranking holds about 33,000 sequences; the median of “E-score (-0.5 to 0.5)” is about -0.0059, and the highest 2% start at about 0.26. The list shows a part of the results.
target: T1, Cin5 (UniProt P40917); test: PBM E-score (8-mer binding enrichment) (E-score (-0.5 to 0.5)); higher = stronger / more preferred TF binding; details: protein concentration: 100 nM; construct: GST-full length
T1 sequence: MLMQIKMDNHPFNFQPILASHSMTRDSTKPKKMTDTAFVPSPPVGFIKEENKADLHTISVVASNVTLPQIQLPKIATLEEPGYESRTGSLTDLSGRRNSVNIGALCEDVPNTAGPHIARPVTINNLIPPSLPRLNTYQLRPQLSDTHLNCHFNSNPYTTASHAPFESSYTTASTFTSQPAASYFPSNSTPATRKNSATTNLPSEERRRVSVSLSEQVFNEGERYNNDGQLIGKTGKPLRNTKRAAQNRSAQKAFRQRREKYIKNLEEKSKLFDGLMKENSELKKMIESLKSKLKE
Procedure: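 Universal 'all 10-mer' protein binding microarrays (Agilent AMADID 015681) probed with GST-tagged S. cerevisiae TFs (full-length or DBD) made by in vitro transcription/translation (PURExpress), about 100-200 nM. Bound TF was detected with fluorescent anti-GST. Each ungapped 8-mer (which stands for itself and its reverse complement) is scored by the PBM enrichment score (E-score), a modified Wilcoxon-Mann-Whitney statistic from -0.5 to +0.5, computed with the Universal PBM Analysis Suite. Scale: above 0.35 generally sequence-specific binding.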

Sequence	PBM E-score
GATAACGA	0.246
CTCAAACC	-0.0558
AATGGCGG	0.0507
ATGCTGCG	-0.146
ACTAGTTG	0.0801
GTACAGAC	-0.168
CCATCTTA	0.0138
CACAGTAG	-0.0191
CGAGGGAG	-0.158
AATCGGTC	0.0656
CCCTCTGC	-0.317
CCGATACA	0.121
CATCTACC	0.129
AACACGGA	0.102
ATAGTGCG	0.122
ACTAAGTA	0.096
CCGGCCAC	-0.222
AAGGGCGC	-0.0242
AGGTATGC	0.137
CAGCGTTA	-0.0199
TAAATAAA	0.211
CGGACTTA	-0.209
GACAGGTC	-0.189
GCAGGCGA	-0.122
CCTTAAGC	-0.123

Looked up one by one from the list above:
Sequence	PBM E-score
CTCAAACC	-0.0558
CGAGGGAG	-0.158
AACACGGA	0.102
CAGCGTTA	-0.0199
GCAGGCGA	-0.122

Individual results from above:
Value for AACACGGA under PBM E-score: 0.102
Value for CTCAAACC under PBM E-score: -0.0558

Continued:

Sequence	PBM E-score
CGACGAGC	-0.13
ACTGGGGC	-0.0635
TCGGAGAA	-0.108
TCGAGCAA	0.0406
AGGACATG	-0.0701
ATAGGCGA	0.114
GGCTGACC	-0.0971
AACAATCG	0.0555
CGGTCTAC	-0.16
GATAACCA	0.178
CGTTAGTA	0.158
AACTAGTG	-0.034
CGTCCGAG	-0.0954
CAATCCTA	-0.104
AGTCGGGG	-0.205
AGACCTAG	-0.0761
CCCCTAGC	-0.32
GGCACGCA	-0.152
ACAGTAAC	0.177
ACGCGGGG	0.109
CACTGCTA	-0.0897
CTATCACC	-0.119
AGACGCTC	-0.288
AGATCCCA	-0.0937
CTTTACAA	0.0323

Sequence	PBM E-score
CTTCTTGA	0.023
AAATACGT	0.1
CTCTGCGA	-0.102
CTCGTTAC	0.036
TATGTCGA	0.0777
CCGACCCC	-0.304
AAGGCTCC	-0.406
AACGAACG	-0.0166
CTTGTCTA	-0.0372
AGATTGTC	-0.0529
GGAGTCAA	-0.0731
ACCAGAGA	0.0441
GGCGAATA	0.14
GCACTAAA	0.0831
ACTGGACG	-0.0204
CAGCTGGA	0.123
GTTAACGA	0.112
GCTAGGCC	-0.164
AACTATGG	-0.0546
AGTATTAT	0.0851
AGAACTTC	-0.217
CTATTTGA	0.207
TAATGTCA	0.177
GAAGATAC	0.0803
CCCACCCA	0.21

Sequence	PBM E-score
AACTAGGA	-0.00449
AGGACAGG	-0.224
CAAAAATG	0.0633
AAAGGTTG	-0.127
CCTGACGC	-0.227
AGAGCGCG	-0.0758
CCCTATTA	-0.0143
ACAGGGTG	-0.183
ATCTCAAC	0.154
CAGGCCAA	-0.149
AGTTAACT	0.069
CATGTCAA	-0.0622
CCAAAGCG	-0.0566
ATATTGGG	0.131
GAATCAGC	-0.00827
AATGACCC	-0.00437
AATACGCG	0.0568
CCCCTATA	-0.113
TATCATCA	0.203
ACTCGATA	0.147
CATCGAAA	-0.0105
AATGTCGG	-0.0577
CCGTGTCG	-0.195
ACAGAGCC	-0.0715
GTCAACTA	0.171

Sequence	PBM E-score
ACAGCGGT	-0.0911
GGCGTTAA	-0.0937
ATCACGGA	0.211
CTACGTCA	-0.0458
CACGTTAG	-0.0237
CACCAATC	0.133
CTGGCAGA	-0.107
ACGAGTCT	-0.141
GCCAGACC	-0.216
CTACGGAG	-0.0842
CAAGCTAC	-0.105
AGGGCTTG	-0.045
CGGGATAG	0.0723
ATGCGCCC	0.0735
AGCTGGAG	-0.165
ATCGTTTA	0.125
CGTTGGGA	-0.0923
GACAGTAA	0.111
TGAATAAA	0.0484
ATGAAGGG	-0.0851
ACAATTCC	0.111
ACAACGAA	0.166
CGCCGAAG	-0.0766
ACCACTGG	0.00337
ACTGCAAT	0.107

Sequence	PBM E-score
GCCCAGGC	-0.288
ACTCGCGA	0.214
GACGCGCC	-0.155
AGCAGCAG	-0.0447
CGACCACA	-0.0683
CAAAATGA	0.0614
GTGGTATA	0.0965
ATTATGGC	0.215
AACATAAT	0.346
CCTTATCC	-0.181
ACGAGCAA	-0.148
CCCCCTGA	-0.435
AGGGGGCA	-0.297
AAGAAACT	0.0655
CGATCCCA	-0.137
ATCTGTTA	0.0842
CAATTTTC	0.167
AGATCCTC	-0.0453
CTATCGTA	0.00956
ACCATGAG	0.0218
CAATGAAC	0.0503
ACACCACG	-0.0488
AGAGAGCC	-0.283
ATGTTTTA	0.0321
AGCATCTG	-0.0965

Sequence	PBM E-score
TAACCTGA	-0.0251
TTGATCAA	0.0336
ACGGACGA	0.0654
CCAAGCCC	-0.195
CAGTAACA	-0.0408
GTTGCGGA	0.011
ACGAATCC	-0.0262
TACAACCA	0.0987
CTTTTATA	-0.0821
AGCTCTCC	-0.174
CCGCAGTC	-0.143
CCTTACAG	-0.15
TACTTAGA	0.0181
ATTCTACA	0.216
AGAGGGCC	-0.335
AAATTGGG	0.122
ACCAGGCA	-0.151
CTAACGCC	-0.166
GTGGGATA	0.121
ATCAGTGG	0.0229
ACATTGGG	-0.199
AGGGTTAT	0.0281
GCTATGTA	-0.0403
CCATGAGA	0.0345
AATATGGC	0.0377

Sequence	PBM E-score
AGTGCACA	-0.125
CAAAATGC	0.00999
AGCCTGTC	-0.148
TCCGGGCA	-0.135
CCGAGTTC	0.00797
TCCTAGAA	-0.157
ATAGGGCC	-0.1
CCTCGATC	-0.0331
CGATACGC	-0.0592
GAAACCAA	0.138
AAGCGCGC	0.186
ACGTGCTG	0.00168
CTGTGCCC	-0.115
AGTGTTCA	0.181
GAGGAGAC	-0.15
ACCCGTCC	-0.0181
GCCTCCAC	-0.257
AGCTCGTG	0.0555
ACCGATCC	-0.145
CTGCACGA	0.00828
AAACGTTT	-0.00291
CCTTTAGC	-0.109
CATACCGC	-0.00427
AAACAGTA	0.11
GCATATGA	0.197

Sequence	PBM E-score
AATGGGCG	-0.101
AAGAGTTA	-0.0309
CGAGCCTA	-0.134
GTCACCAA	-0.0845
AATGGGGA	0.0144
TGGGGGAA	-0.365
ACGCGCTG	-0.032
CCACGGTA	-0.141
GACACAAC	-0.0406
AGGCAGGG	0.0528
AGGAGAGG	-0.178
CAGCGAGC	-0.0678
ATAGGAAT	-0.039
GAAGCCCC	-0.179
GAAATACC	0.0277
CAGCATGG	-0.0225
CTTCATGA	0.193
ATATGACC	-0.101
GAACGCTC	-0.118
AGCCCGCC	-0.0566
AGCAATCA	0.221
ACGCACCC	-0.267
CTACGTTC	-0.0564
CTCTGTAC	-0.119
ATCAGAAT	0.131

Sequence	PBM E-score
GTCTCCAA	-0.0956
CCGACGTA	-0.0159
CCTCCTAC	-0.248
GTACTAAA	0.0965
ACTAGTGC	0.0478
CACACCCA	0.117
ACACTAAC	0.141
ATTTTTGG	0.0157
CGATAGAC	-0.0837
ATCGCCCC	-0.168
CTTACTAC	0.202
GGAGGGAC	-0.189
CAGGACTG	-0.156
CCCCGGAC	-0.233
CACCCGGA	0.0998
CCACTCAG	-0.104
CTTACAGC	-0.0244
CAACGGAG	-0.043
AGTAAACA	0.21
CAAGAAGC	0.0478
AGGCCTCA	-0.167
GTCGTCTA	0.0507
TCCCTCGA	-0.0641
CGAACGCG	0.00852
GCAACTAA	0.229

Sequence	PBM E-score
CGTTTCGC	0.0756
AGGGGACT	-0.2
GTGCGCAA	-0.127
ACCTTTGG	-0.304
GAGTTAGC	0.097
ACTAACGA	0.0822
CGTCGTGA	-0.18
CCTTCATA	0.0109
GCCCCGCC	0.1
AGAGCTGC	-0.181
GATAATCC	0.17
AGTATAGC	0.113
AAGGTAGC	-0.0971
CCTGCACG	-0.111
ATGCTACA	-0.0162
CTATTGAC	0.132
CGTAAGAA	0.0745
ATAAGCCA	0.11
ACAGGTGG	-0.195
CGCCCACA	0.16
AGCGTTCG	0.0638
ATAGGGCG	-0.0574
TAAAGGAA	-0.0482
CGTAGACC	-0.252
AGTGCGTC	-0.12

Nothing new here: an excerpt of the list.
Sequence	PBM E-score
GTGCGCAA	-0.127
ACCTTTGG	-0.304
GAGTTAGC	0.097
ACTAACGA	0.0822
CGTCGTGA	-0.18
CCTTCATA	0.0109

Carrying on:

Sequence	PBM E-score
CGCGTACA	-0.081
GACCATAA	-0.0597
ACAGTTAC	0.0239
AACCACGC	-0.0367
CTATGGTA	0.107
ACAATATC	0.214
CGGTCGGA	-0.213
GATTGTCC	-0.129
GCTCACGA	-0.0418
CCGCCGGA	-0.00456
AACCAAGC	-0.0367
ATGCTGTC	-0.00139
ATGCGTGA	0.0573
AGGAGCAG	-0.247
CATTACTC	0.0453
GTAATGAA	0.162
AAACCATT	0.045
CCGCATAG	0.0714
GCTTAAAC	-0.144
CTCGCCAA	0.0055
ATTTGGTG	0.0979
ATCACCGG	-0.118
ATTCCGTA	0.115
ACCATGTA	0.102
CCTGAGTC	-0.0597

Sequence	PBM E-score
GAGAACGC	-0.0459
ATGTGCCC	-0.0254
GTGAGGCA	-0.0433
CTAAGGAA	-0.0525
CCCCCTCC	-0.403
ACACATGG	0.0516
AAACTCGA	0.125
CTGCTCGA	-0.118
ACCATATG	0.0375
TAGCCCCA	0.187
AGGTCCAG	0.0191
CAGAAGAC	-0.0176
CGCGTGCC	0.0722
CTTTGCTA	0.0754
CGCCGTAA	0.122
GCGTTTAC	0.0151
AAGTCCCT	-0.204
TCCCCTCA	0.201
GGAGAAGA	-0.131
CGGCTGTA	-0.111
CTCCTGAA	-0.0295
AACCGAAG	0.0257
AGACGTAA	0.0955
AAGATACC	0.15
GCCCTGCA	-0.142

Sequence	PBM E-score
CCTGCGAG	-0.0365
GCTAGACA	-0.122
GGATAGAA	0.109
AGGTAACG	-0.039
AAGGGCGT	-0.204
CATTTTCG	0.0912
CACTCTCG	0.116
ACAGGCTA	-0.0671
TGATTAAA	0.0915
ACCGAGAT	0.132
ATTTTAAG	0.0394
CATTACCC	-0.0213
CGTGATAG	-0.14
CGGTTACA	0.118
CTAAACTA	0.0914
CATCGCCC	-0.21
CGCCCAAG	-0.181
TCGAATAA	0.0954
CCAGACAC	-0.172

Reference: the supplement of paper PMC3334620
